No constants are given. Whether binding was seen depends on the method and setting. For part of these data: Binding seen in cells or lysates may run through a third protein. Some binding calls cover weakened binding; strength is not graded here.
Tests used:
[1] = molecular target: MUC1* growth factor receptor (cleaved MUC1 of cells) (human) (UniProt P15941); assay: cited to FIG. 1 (sandwich ELISA)
[2] = molecular target: MUC1* growth factor receptor (cleaved MUC1 of cells) (human) (UniProt P15941); assay: pull-down assays, ELISAs and nanoparticle binding experiments

The chains behind the UniProt entries cited, without tags or fusion partners. Where a name states a change or a piece, a line headed by the entry shows the natural chain unless it says otherwise.
UniProt P15941: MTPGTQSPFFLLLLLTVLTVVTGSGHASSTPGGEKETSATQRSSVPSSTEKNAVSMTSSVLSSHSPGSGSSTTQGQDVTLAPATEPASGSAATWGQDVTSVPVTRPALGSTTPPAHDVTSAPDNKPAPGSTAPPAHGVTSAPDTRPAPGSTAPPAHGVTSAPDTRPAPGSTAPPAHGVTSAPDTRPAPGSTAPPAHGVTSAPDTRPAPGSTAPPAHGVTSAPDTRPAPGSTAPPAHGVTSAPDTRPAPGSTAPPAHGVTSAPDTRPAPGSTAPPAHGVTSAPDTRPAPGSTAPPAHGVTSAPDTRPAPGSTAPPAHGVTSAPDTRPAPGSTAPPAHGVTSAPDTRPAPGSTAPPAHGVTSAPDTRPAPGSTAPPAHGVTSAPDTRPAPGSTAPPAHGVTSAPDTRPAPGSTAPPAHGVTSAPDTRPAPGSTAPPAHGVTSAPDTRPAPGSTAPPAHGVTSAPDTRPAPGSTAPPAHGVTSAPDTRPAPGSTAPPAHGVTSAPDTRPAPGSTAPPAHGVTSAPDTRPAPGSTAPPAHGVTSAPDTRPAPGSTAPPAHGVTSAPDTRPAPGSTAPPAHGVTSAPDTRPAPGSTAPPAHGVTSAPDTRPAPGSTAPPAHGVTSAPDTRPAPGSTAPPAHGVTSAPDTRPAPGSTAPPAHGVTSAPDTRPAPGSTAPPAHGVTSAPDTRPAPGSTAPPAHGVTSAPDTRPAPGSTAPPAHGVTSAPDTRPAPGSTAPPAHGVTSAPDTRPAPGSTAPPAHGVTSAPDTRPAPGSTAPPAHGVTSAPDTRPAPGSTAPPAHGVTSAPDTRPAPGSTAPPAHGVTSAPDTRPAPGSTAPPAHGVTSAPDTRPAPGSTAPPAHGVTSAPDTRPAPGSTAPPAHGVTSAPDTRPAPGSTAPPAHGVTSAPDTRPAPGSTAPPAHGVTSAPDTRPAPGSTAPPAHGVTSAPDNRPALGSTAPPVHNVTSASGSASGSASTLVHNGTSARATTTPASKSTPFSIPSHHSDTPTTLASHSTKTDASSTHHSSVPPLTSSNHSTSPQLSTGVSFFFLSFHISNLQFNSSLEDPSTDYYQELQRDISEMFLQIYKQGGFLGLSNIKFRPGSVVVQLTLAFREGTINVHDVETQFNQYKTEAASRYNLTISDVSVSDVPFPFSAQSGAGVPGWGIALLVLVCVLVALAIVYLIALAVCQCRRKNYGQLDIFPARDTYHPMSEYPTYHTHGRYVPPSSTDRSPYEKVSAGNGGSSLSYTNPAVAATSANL
UniProt Q9Y5B8: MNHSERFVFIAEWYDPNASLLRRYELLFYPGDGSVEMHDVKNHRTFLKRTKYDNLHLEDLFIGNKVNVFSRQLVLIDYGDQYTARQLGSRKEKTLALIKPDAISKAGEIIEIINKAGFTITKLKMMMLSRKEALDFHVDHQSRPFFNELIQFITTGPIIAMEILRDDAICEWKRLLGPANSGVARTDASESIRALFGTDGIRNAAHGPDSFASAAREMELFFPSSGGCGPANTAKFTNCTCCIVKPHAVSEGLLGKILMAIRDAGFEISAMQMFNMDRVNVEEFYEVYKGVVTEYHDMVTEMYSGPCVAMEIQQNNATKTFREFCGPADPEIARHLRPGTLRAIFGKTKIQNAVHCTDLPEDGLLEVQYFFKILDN

| Substance | binding [1] | binding [2] |
| --- | --- | --- |
| Human NME7-AB, also known as NME7AB (recombinant, devoid of the DM10 domain) (from UniProt Q9Y5B8 92-376) (ligand) | binds | binds |
| full-length human NME7 (42 kDa) (from UniProt Q9Y5B8 1-376) (ligand) | – | binds |
